In article PMC6294559:
No constants are given. Whether binding was seen depends on the method and setting. In cells and extracts the contact can be indirect. Some binding calls cover weakened binding; strength is not graded here.

Protein sequences, listed by entry. Tags and fused reporters are not part of them.
UniProt Q9C5X9: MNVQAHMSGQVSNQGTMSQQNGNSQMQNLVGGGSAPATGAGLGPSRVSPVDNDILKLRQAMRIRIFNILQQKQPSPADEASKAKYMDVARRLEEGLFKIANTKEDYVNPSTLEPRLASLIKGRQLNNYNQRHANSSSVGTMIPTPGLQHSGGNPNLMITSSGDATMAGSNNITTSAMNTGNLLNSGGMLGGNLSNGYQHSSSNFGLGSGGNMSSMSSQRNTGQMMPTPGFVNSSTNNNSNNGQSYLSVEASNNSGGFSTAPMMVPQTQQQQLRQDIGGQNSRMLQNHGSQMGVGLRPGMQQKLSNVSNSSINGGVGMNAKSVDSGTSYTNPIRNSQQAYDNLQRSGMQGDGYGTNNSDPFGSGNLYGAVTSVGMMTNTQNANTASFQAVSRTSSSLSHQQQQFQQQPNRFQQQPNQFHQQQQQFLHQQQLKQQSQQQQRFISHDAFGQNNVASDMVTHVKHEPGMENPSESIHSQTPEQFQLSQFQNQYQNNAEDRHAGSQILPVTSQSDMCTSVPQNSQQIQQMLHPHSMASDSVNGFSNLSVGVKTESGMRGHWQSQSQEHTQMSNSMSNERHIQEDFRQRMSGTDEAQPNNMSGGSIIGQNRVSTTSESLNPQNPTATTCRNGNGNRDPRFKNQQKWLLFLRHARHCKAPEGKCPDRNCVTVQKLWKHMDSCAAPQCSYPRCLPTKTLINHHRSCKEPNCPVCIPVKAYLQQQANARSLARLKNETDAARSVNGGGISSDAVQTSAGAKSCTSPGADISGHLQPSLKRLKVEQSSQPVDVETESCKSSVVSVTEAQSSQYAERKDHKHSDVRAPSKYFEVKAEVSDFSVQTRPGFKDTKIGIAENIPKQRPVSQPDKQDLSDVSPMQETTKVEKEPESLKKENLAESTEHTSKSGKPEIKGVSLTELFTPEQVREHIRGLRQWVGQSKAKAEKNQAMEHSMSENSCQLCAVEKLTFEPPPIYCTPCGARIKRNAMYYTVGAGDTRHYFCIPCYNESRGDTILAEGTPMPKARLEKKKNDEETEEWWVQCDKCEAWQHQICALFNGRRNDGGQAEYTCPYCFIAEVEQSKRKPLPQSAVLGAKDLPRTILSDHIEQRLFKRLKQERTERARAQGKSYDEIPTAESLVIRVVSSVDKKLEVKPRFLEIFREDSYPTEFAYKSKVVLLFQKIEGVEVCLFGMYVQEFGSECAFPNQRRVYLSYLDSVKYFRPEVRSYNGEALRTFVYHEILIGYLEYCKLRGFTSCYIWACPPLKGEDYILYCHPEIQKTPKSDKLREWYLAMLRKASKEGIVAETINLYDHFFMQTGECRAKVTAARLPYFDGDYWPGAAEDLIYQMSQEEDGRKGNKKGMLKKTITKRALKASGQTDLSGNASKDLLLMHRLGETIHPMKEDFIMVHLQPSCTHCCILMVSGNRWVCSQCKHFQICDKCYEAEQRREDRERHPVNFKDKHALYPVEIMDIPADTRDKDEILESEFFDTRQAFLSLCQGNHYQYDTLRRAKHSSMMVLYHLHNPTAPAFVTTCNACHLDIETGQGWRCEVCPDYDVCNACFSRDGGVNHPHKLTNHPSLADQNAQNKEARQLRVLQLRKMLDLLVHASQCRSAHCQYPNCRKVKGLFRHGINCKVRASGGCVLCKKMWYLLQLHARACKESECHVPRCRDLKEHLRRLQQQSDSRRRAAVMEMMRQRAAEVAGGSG
UniProt P93002: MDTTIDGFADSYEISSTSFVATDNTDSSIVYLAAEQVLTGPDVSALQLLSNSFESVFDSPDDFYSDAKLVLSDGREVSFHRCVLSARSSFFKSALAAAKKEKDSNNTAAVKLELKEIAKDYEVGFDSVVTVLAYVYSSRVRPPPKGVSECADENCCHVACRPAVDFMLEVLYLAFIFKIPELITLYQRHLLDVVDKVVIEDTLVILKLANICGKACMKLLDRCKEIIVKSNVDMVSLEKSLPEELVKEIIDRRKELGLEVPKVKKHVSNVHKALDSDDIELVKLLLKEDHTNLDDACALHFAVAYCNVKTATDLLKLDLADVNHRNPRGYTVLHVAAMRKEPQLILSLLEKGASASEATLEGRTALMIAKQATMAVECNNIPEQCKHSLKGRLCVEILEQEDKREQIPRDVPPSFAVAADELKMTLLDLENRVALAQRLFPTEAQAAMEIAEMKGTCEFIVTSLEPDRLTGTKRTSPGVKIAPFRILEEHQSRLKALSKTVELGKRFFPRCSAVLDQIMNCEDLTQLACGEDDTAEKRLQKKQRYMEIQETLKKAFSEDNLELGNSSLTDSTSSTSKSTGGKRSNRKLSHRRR

Biological target: HAC1:HA fusion protein (Arabidopsis) (UniProt Q9C5X9)
Experiment: co-IP; total proteins of 4-w-old transgenic Arabidopsis plants treated with DW or INA for 12 h (also after pathogen attack; also in tga2/5/6 and hac1/5 backgrounds); IP with α-HA agarose beads or α-GFP coupled to protein-A agarose, 4°C, 3 h; 50 mM Tris-HCl pH 7.5, 150 mM NaCl, 10 mM MgCl2, 5 mM EDTA, 10% glycerol; immunoblot

binding: binds
Substance: NPR1:GFP (from UniProt P93002 1-593)
